Values from PubChem BioAssay AID1259424 (University of Nebraska Medical Center, 2018)

- Purpose: 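Rank knockdowns across the genome by resemblance to the KSR1 depletion profile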 (primary screen)
- Cells: human HCT116 colon cancer cells
- Knock-down reagent: siRNA pool against human genes, 50 nM
- Measured: 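Six signature mRNAs by branched-DNA multiplex assay, scaled to two housekeeping genes and non-targeting median, log2; matched to mean KSR1 knockdown profile by Pearson correlation and euclidean distance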
- Direction: mean correlation with KSR1 profile and KSR1 correlation: higher = expression change more like KSR1 knockdown; mean distance from KSR1 profile: higher = expression change less like KSR1 knockdown
In all, the deposit lists about 14,000 reagents; below is a part drawn at random. 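Higher correlation or smaller distance means closer resemblance to KSR1 loss; control wells, including KSR1 knockdowns, recur on many plates.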 The numbers tell different reagents against one gene apart. The record does not give: the time to read-out.

Target gene	reagent no.	mean correlation with KSR1 profile	mean distance from KSR1 profile	KSR1 correlation, replicate 1	KSR1 correlation, replicate 2	KSR1 correlation, replicate 3
STS	1	-0.0595	2.04	-0.241	-0.169	0.206
PNN	1	-0.283	1.42	-0.0479	-0.272	-0.549
VN1R5	1	-0.639	2.93	0.29	0.149	-0.286
NREP	1	-0.592	2.55	-0.572	-0.669	-0.415
MAX	1	0.404	2.58	0.564	0.258	0.219
ANXA6	1	-0.52	1.94	-0.715	-0.523	-0.523
FASTKD1	1	0.534	1.49	0.616	0.772	0.271
SUMO2	1	0.443	1.76	0.605	0.348	0.333
SULT4A1	1	-0.411	1.94	-0.455	-0.625	0.0292
ID1	1	-0.429	3.4	-0.453	-0.532	-0.444
MYCN	1	-0.506	1.71	0.123	-0.326	-0.529
ZNF230	1	-0.31	2.62	-0.345	-0.0471	-0.632
NAGLU	1	0.0857	1.24	0.0451	0.00306	0.0774
CSE1L	1	0.234	1.84	0.074	0.142	0.265
HDGFL3	1	-0.663	1.67	-0.399	-0.432	-0.659
GPBP1L1	1	-0.717	2.27	-0.717	-0.601	-0.466
PDIA3	1	-0.48	1.95	-0.307	-0.64	-0.523
TRMT2B	1	0.506	1.27	0.684	0.584	0.361
SPAST	1	0.0899	2.58	0.178	0.253	-0.269
KIR3DL3	1	-0.533	3.16	-0.535	-0.599	-0.611
LINC01547	1	0.965	1.76	0.975	0.934	0.672
LINC01547	2	0.613	1.43	0.665	0.565	0.296
CENPQ	1	0.135	2.47	0.272	-0.0324	0.229
DOC2B	1	-0.52	1.36	-0.695	-0.515	-0.104
PKP1	1	0.0918	2.29	0.284	0.128	0.0562
LRRN3	1	-0.39	1.74	-0.535	-0.267	-0.229
PTK7	1	0.00913	3.01	0.099	0.18	-0.24
TBC1D25	1	0.384	0.752	0.374	0.606	0.174
APOL6	1	0.768	0.962	0.594	0.701	0.862
PEX13	1	-0.488	1.45	-0.314	-0.635	-0.386
MARS1	1	-0.331	3.11	-0.475	-0.375	-0.36
RAB8A	1	-0.472	2.52	-0.599	-0.65	-0.402
FOXA3	1	0.426	4.11	0.408	0.306	0.59
TXNDC12	1	-0.535	2.55	-0.559	-0.53	-0.327
HBEGF	1	-0.171	2.42	-0.209	-0.127	-0.111
PMCHL1	1	-0.254	1.62	-0.316	0.177	-0.151
FXYD2	1	0.418	4.55	0.227	0.388	0.231
MSTO1	1	0.00907	2.01	0.137	-0.0764	-0.252
GPR34	1	-0.0181	3.04	0.4	0.579	-0.56
CCDC191	1	-0.217	3	-0.253	-0.385	-0.158
SHCBP1L	1	0.149	2.62	-0.0664	0.201	0.0751
ATP1A3	1	0.445	1.15	0.575	0.366	0.0524
ASB2	1	-0.0417	1.8	-0.3	0.0787	-0.116
MMP27	1	0.414	1.73	0.423	0.358	0.387
COQ2	1	-0.388	1.64	-0.342	-0.257	-0.447
SACK1D	1	0.196	2.12	0.0438	0.131	0.229
HSD3B1	1	0.512	1.85	0.505	0.342	0.511
MATR3	1	-0.389	2.47	-0.417	-0.351	-0.535
ARMCX5	1	0.4	1.39	0.251	-0.157	0.284
SLC22A15	1	-0.477	2.79	-0.254	-0.657	-0.565

6 neighbouring records already listed, for reference:
Target gene	reagent no.	mean correlation with KSR1 profile	mean distance from KSR1 profile	KSR1 correlation, replicate 1	KSR1 correlation, replicate 2	KSR1 correlation, replicate 3
FOXA3	1	0.426	4.11	0.408	0.306	0.59
TXNDC12	1	-0.535	2.55	-0.559	-0.53	-0.327
HBEGF	1	-0.171	2.42	-0.209	-0.127	-0.111
PMCHL1	1	-0.254	1.62	-0.316	0.177	-0.151
FXYD2	1	0.418	4.55	0.227	0.388	0.231
MSTO1	1	0.00907	2.01	0.137	-0.0764	-0.252
